The text below walks through data of PubChem BioAssay AID720591 (Broad Institute, 2013).

Sequences of proteins named here, by UniProt entry; tags and fusion partners are left off. A change or cut given only in a name is not applied to a line headed by its entry.
UniProt Q9NXA8: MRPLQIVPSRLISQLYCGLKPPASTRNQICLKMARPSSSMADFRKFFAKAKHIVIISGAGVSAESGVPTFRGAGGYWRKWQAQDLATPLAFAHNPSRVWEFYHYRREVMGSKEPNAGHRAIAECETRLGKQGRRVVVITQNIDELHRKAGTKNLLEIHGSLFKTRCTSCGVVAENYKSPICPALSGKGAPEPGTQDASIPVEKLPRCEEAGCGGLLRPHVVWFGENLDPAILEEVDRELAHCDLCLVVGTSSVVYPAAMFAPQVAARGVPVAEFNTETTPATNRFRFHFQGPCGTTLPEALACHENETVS

Among all 1,200 compounds or so, about 60 (5%) were called active. Inconclusive results (about 1%) are left out.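 How the source made its calls: active means Decreasing signal and fitted IC50 at most twice the top valid tested dose; inconclusive means Bad fit or a level curve showing 30 to 70% inhibition; inactive means the rest.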 Some of the results follow. Measured potencies and affinities stand elsewhere.

In this assay the target is NAD-dependent protein deacylase sirtuin-5, mitochondrial (Homo sapiens) (UniProt Q9NXA8). The assay can be described thus: sirtuin-5 deacylation blockers, concentration series – biochemical, fluorescence imaging, cherry-pick, set 5, dose response (AID 720591).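 Further: 0% = median of neutral control wells and -100% = median of positive control wells.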 The note with it: Purified SirT5, succinyl-peptide AMC, trypsin-coupled fluorescence; at 15 µM (top of the series).
For `CN1CC(C(=O)c2ccc(Cl)cc2)C(c2ccccc2)C1` (stereo unspecified), the activity change, negative = inhibition was inactive: -9.11%. The value for `CCN(CC)C(=O)c1ccc(NC(=O)COc2ccccc2F)cc1` was inactive: 2.2%; that for `CCOC(=O)[C@]12Cc3cc4ccccc4cc3[C@H]1N(Cc1ccccc1)C(=O)c1ccccc12` was inactive: 14.8%.

For `CSCCC(c1nnnn1-c1ccc2c(c1)OCCO2)N1CCC(n2c(=O)[nH]c3ccccc32)CC1` (stereo unspecified), the activity change, negative = inhibition is inactive: 5.66%. Consider `COC(=O)C1=C(c2cccc(OCc3ccccc3)c2)C[C@@H]2CC[C@H]1N2C(=O)NCCCOC(C)C`, for which the activity change, negative = inhibition was inactive: -8.24%. As to `CS(=O)(=O)c1ccc(C2=C(CNC(=O)c3cccs3)[C@H]3CC[C@@H](C2)N3CCOc2ccccc2)cc1`, the activity change, negative = inhibition is inactive: -32.4%. The value for `CC(=O)Nc1ccc(C(=O)C(Cc2ccccc2)N(C)C)cc1` (stereo unspecified) was inactive: -32.1%; that for `CCN1C[C@]2(CO)CC[C@H](OC)[C@@]34C2[C@H](OC)[C@@](O)(C13)[C@@]1(O)C[C@H](OC)[C@H]2C[C@@H]4[C@@H]1[C@H]2OC` was inactive: -16.9%; that for `COc1cccc(CC(=O)N(C)C2CCCN(Cc3ccccc3F)C2)c1` (stereo unspecified) was inactive: 9.95%. `O=C(NCC1=C(c2ccc3ccccc3c2)C[C@@H]2CC[C@H]1N2Cc1ccco1)c1ccncc1`: the activity change, negative = inhibition is inactive: -0.656%. For `Cc1ccc(OCCSC2=NN2c2cc(C)nc(N)n2)cc1` the value was inactive: 9.78%; for `C[C@]12CCC3C(CC[C@H]4C[C@@H](O)CC[C@]34C)C1C[C@@H](Br)[C@@H]2O` (stereo partly specified), inactive: 19.3%; for `OCCNCCc1c[nH]c2ccc(OCc3ccccc3)cc12`, inactive: -3.1%. For `CCCCN1CCC(C#N)(Nc2ccccc2)CC1` the value was inactive: -24.2%. The value for `CCOC(=O)[C@]12Cc3c(cc(OC)c(OC)c3OC)[C@H]1N(C1CCCCC1)C(=O)c1ccccc12` was inactive: 1.73%; that for `COc1ccc(-n2c(-c3ccccc3Br)nc3ccccc3c2=O)cc1` was inactive: -17%.
